Test results reported in patent US12036312B2, “Non-aqueous topical compositions comprising a halogenated salicylanilide” (priority 2016, dated 2024).
Some of these results come from one statement about several compounds together.

These molecules were tested on MRSA 01, MRSA 15 (fusidic acid-resistant), MRSA 16 (mupirocin-resistant) (assay: Mutational frequency evaluation (spontaneous single-step mutations), Example 1). Conditions: at MIC×1 (Example 1).
Format: cell-based, Staphylococcus aureus
For `CC(=O)O[C@H]1C[C@@]2(C)[C@@H](C[C@@H](O)[C@H]3[C@@]4(C)CC[C@@H](O)[C@@H](C)[C@@H]4CC[C@@]32C)/C1=C(\CCC=C(C)C)C(=O)O` [Fusidic acid, fusidic acid], the mutational frequency was ≥ 4×10^−5.
For `C/C(=C\C(=O)OCCCCCCCCC(=O)O)C[C@@H]1OC[C@H](C[C@@H]2O[C@H]2[C@@H](C)[C@H](C)O)[C@@H](O)[C@H]1O` [Mupirocin, mupirocin], the mutational frequency was ≥ 4×10^−5.
In the case of `C=C[C@]1(C)C[C@@H](OC(=O)CS[C@@H]2C[C@H]3CC[C@@H](C2)N3C)[C@]2(C)[C@H](C)CC[C@]3(CCC(=O)[C@H]32)[C@@H](C)[C@@H]1O` [Retapamulin, retapamulin], the mutational frequency is reported as ≥ 4×10^−5.
